Source: patent publication US8980819B2, “4(3)-(4-hydroxy-4-methylpentyl)-3-cyclohexene-1-carbonitrile” (Kao Corporation, priority 2013, dated 2015)

Columns and labels:
[1] = from Non-Patent Documents 1, 2 and Patent Document 1; cited from earlier work
[2] = Odor evaluation by smelling strip method (single compounds); conditions: for Odor Intensity: relative evaluation, 0 denoting odorless and 5 denoting very strong, rounded to nearest whole number; for Main Odor: smelling strip method, expert panel, fragrances sensed mainly

Molecule: 3-cyano-3-methyl- and 4-cyano-4-methyl-1-(4-methyl-3-pentenyl)cyclohexane
- Odor (known) [1]: soft, floral odor

Molecule: 4(3)-(4-hydroxy-4-methylpentyl)-3-cyclohexene-1-carbonitrile [Example 1]
- Odor Intensity [2]: 3
- Main Odor [2]: Floral (Muguet)

Molecule: 4(3)-(4-hydroxy-4-methylpentyl)-3-cyclohexene-1-carboxaldehyde [Lyral]
- Odor (known) [1]: lily of the valley like odor similar to hydroxycitronellal

Molecule: 4(3)-(4-hydroxy-4-methylpentyl)-3-cyclohexene-1-carboxaldehyde oxime [Production Example 1]
- Odor Intensity [2]: 1
- Main Odor [2]: Floral (Lily)

Molecule: 4(3)-(4-methyl-3-pentenyl)-3-cyclohexene-1-carbonitrile [Azuril]
- Odor (known) [1]: citrus-like odor

Molecule: N#CC(=C1CCCCC1)c1ccccc1 [Peonile, 2-cyclohexylidene-2-phenylacetonitrile]
- Odor (known) [1]: fresh, grapefruit, geranium, rose floral-like odor
